Test [1] has as its target short GA DPRs fragment photoreleased from ADP-3 [cysteine-(glycine-alanine)3] (human). Put plainly: transmission electron microscopy + turbidity; irradiated and unirradiated ADP-3, up to 96 h of incubation; both purified.
The target is the same in test [2]. Put plainly: slot blot with the amyloid-oligomer-specific antibody A11; total lysates (RIPA, 50 ug protein) of SH-SY5Y cells treated with ADP-1 or ADP-3, with or without photoinitiation, over time; A11 signal normalised to GAPDH.
In test [3] the target is ADP-3, unirradiated [cysteine-(glycine-alanine)3-photolinker-lysine8] (human). Put plainly: transmission electron microscopy + turbidity; irradiated and unirradiated ADP-3, up to 96 h of incubation; both purified.
Test [4] concerns the target Alexa Fluor 488-labelled short GA DPRs fragment photoreleased from ADP-4 [Alexa Fluor 488-cysteine-(glycine-alanine)3] (human). Put plainly: fluorescence lifetime imaging microscopy (self-quenching); photoinitiated probe in solution (ADP-2 5 uM), 37 C, 0.5, 2 and 24 h of incubation; both purified.

Results are given in words; binding and its absence hold for the method and conditions named.

For three molecules, binding results are on record in article PMC9814621, “Nanoscopic investigation of C9orf72 poly-GA oligomers on nuclear membrane disruption by a photoinducible platform” (Communications Chemistry, 2021).

B1: short GA DPRs fragment photoreleased from ADP-3 [cysteine-(glycine-alanine)3] (peptide)
peptide: CGAGAGA
In the case of B1, the binding entry in test [1] and in test [2] was “no binding” each time.

B2: ADP-3, unirradiated [cysteine-(glycine-alanine)3-photolinker-lysine8] (peptide)
peptide: CGAGAGAKKKKKKKK
modifications: photolabile methoxynitrobenzene linker (PL) between (GA)3 and K8
On to B2, for which the binding result in test [3] was “no binding”.

B3: Alexa Fluor 488-labelled short GA DPRs fragment photoreleased from ADP-4 [Alexa Fluor 488-cysteine-(glycine-alanine)3] (peptide)
peptide: CGAGAGA
modifications: Alexa Fluor 488 on the N-terminal cysteine
As to B3, the binding result in test [4] is on record as “no binding”.
